The source of these data is article PMC10415149.

Chains of the proteins cited; added tags and fusions are not shown. Chains listed by the source or under a name are the forms on record and can include a tag or linker.
PrimPol1-475 (RBM deleted) + RPA, one chain, as listed by the source, stated change not applied, chain 3 of 3: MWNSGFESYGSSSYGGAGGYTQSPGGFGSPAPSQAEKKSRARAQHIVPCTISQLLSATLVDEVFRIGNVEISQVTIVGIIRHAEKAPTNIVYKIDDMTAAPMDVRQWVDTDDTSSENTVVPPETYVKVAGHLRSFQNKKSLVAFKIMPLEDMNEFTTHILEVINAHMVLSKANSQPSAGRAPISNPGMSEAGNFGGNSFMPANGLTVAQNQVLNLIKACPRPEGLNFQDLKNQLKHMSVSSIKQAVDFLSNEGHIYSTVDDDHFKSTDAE
PrimPol1-475 (RBM deleted) + RPA, one chain, as listed by the source, stated change not applied, chain 4 of 3: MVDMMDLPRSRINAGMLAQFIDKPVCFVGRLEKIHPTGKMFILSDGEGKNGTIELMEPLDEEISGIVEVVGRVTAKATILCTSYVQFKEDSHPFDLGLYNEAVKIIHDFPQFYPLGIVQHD
PrimPol1-475 (RBM deleted) + RPA, one chain, as listed by the source, stated change not applied, chain 2 of 3: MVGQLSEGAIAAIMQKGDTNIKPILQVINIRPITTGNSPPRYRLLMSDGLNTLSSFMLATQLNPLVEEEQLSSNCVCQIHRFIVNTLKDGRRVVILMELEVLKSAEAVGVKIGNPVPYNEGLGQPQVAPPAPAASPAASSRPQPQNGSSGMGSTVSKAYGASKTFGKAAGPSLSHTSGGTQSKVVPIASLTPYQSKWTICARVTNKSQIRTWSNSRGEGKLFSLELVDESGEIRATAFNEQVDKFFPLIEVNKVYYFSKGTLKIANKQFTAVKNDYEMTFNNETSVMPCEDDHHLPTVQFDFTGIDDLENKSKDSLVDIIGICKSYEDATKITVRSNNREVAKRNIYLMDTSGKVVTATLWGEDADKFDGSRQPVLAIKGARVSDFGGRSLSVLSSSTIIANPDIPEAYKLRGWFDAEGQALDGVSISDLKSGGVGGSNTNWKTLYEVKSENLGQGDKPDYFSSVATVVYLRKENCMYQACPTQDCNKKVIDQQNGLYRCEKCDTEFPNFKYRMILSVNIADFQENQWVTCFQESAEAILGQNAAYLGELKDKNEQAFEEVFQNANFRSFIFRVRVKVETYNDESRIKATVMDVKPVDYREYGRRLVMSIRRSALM

Broadly, the Kd is the equilibrium constant for the complex coming apart.

Numbering of substitutions follows the chain as printed. For some assays here: A negative result means that nothing was seen under these conditions. For some assays here: Protein sequences can lack the tags named with them. For some assays here: For at least one entry, the source does not settle the construct or the ends of the probe. For some assays here: A weaker result is weaker than the reference pair of the same experiment. For some assays here: At least one verdict rests on a figure or table, not on a statement of the authors.

Common to all, as to test: EMSA
Data set [1] deals with T1, PrimPol WT (Homo sapiens) (UniProt Q96LW4).
T1 sequence (looked up): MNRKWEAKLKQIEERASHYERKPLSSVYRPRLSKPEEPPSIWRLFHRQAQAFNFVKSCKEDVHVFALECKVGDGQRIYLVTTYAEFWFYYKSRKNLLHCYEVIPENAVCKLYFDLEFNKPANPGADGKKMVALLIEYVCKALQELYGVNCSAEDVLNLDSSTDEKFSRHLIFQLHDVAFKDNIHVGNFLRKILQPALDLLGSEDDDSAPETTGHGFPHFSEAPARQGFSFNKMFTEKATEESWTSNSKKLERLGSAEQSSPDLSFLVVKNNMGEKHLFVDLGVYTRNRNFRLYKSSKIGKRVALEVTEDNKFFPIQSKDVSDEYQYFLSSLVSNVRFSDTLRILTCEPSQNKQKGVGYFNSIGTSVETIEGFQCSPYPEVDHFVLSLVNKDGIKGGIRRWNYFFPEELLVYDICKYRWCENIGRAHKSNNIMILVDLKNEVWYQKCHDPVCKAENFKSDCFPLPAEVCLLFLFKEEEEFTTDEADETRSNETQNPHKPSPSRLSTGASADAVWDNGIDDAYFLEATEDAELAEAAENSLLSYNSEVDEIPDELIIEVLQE
The note with it: EMSA: 40 mM HEPES pH 7.0, 50 mM KCl, 1 mM DTT, 5% glycerol, 0.1 mg/ml BSA, 1 mM MnCl2, 300 nM DNA, 24 C 20 min then ice (RPA assays: 50 nM DNA, 25 nM RPA, 8 C), recombinant protein, residues 1-560, protein details: N-terminal SUMO-HIS10.

Data set [2] concerns the target T2, PrimPol1-475 (RBM deleted) (Homo sapiens) (UniProt Q96LW4).
T2 sequence (looked up): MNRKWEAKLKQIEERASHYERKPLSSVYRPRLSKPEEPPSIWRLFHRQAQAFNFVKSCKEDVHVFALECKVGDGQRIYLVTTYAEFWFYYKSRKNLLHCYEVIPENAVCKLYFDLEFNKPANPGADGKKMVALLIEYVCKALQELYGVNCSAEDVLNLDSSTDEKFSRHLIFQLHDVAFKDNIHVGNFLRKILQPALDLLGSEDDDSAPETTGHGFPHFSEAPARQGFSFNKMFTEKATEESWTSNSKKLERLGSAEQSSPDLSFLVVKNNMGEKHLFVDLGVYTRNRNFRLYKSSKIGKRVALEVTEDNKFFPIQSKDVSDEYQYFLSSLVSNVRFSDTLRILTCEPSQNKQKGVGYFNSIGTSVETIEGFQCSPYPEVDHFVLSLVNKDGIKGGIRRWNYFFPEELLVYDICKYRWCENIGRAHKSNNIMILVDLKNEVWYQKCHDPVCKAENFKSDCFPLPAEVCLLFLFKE
To be noted: EMSA: 40 mM HEPES pH 7.0, 50 mM KCl, 1 mM DTT, 5% glycerol, 0.1 mg/ml BSA, 1 mM MnCl2, 300 nM DNA, 24 C 20 min then ice (RPA assays: 50 nM DNA, 25 nM RPA, 8 C), recombinant protein, residues 1-475, protein details: N-terminal SUMO-HIS10. (In general: In EMSA bound probe runs differently from free probe, usually more slowly.)

Data set [3] addresses T3, PrimPol1-363 (NTD) (Homo sapiens) (UniProt Q96LW4).
T3 sequence (looked up): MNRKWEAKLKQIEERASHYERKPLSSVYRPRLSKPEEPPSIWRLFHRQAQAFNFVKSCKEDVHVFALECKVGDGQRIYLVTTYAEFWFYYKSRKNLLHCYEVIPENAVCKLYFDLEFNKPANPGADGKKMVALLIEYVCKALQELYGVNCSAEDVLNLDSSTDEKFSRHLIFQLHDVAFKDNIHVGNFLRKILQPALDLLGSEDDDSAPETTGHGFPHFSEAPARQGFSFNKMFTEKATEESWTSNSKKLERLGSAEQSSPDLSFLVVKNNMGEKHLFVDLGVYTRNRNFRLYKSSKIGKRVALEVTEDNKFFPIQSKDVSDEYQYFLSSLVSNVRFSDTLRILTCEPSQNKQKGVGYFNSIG
The note with it: 1 mM Mn2+; EMSA: 40 mM HEPES pH 7.0, 50 mM KCl, 1 mM DTT, 5% glycerol, 0.1 mg/ml BSA, 1 mM MnCl2, 300 nM DNA, 24 C 20 min then ice (RPA assays: 50 nM DNA, 25 nM RPA, 8 C); recombinant protein; residues 1-363; protein details: N-terminal SUMO-HIS10; label: 5' 32P on Primer-18.

Data set [4] relates to PrimPol1-475 (RBM deleted) + RPA. To be noted: PrimPol1-475 does not join preformed RPA:DNA, 1 mM Mn2+, ATP, dNTPs, 8 C; EMSA: 40 mM HEPES pH 7.0, 50 mM KCl, 1 mM DTT, 5% glycerol, 0.1 mg/ml BSA, 1 mM MnCl2, 300 nM DNA, 24 C 20 min then ice (RPA assays: 50 nM DNA, 25 nM RPA, 8 C); recombinant protein; protein details: N-terminal SUMO-HIS10; label: 32P; single-stranded DNA.
For the next data set, the system named is RPA (Homo sapiens). The note with it: RPA preincubated with DNA, 8 C; EMSA: 40 mM HEPES pH 7.0, 50 mM KCl, 1 mM DTT, 5% glycerol, 0.1 mg/ml BSA, 1 mM MnCl2, 300 nM DNA, 24 C 20 min then ice (RPA assays: 50 nM DNA, 25 nM RPA, 8 C); recombinant protein; label: 32P; single-stranded DNA.
Data set [5] deals with T4, PrimPol R417A (Homo sapiens) (UniProt Q96LW4).
T4 sequence (looked up): T1 sequence (looked up) with R417A
To be noted: 1 mM Mn2+; primer 5'-triphosphate; primer nt 1 is ribo-A, rest DNA; EMSA: 40 mM HEPES pH 7.0, 50 mM KCl, 1 mM DTT, 5% glycerol, 0.1 mg/ml BSA, 1 mM MnCl2, 300 nM DNA, 24 C 20 min then ice (RPA assays: 50 nM DNA, 25 nM RPA, 8 C); recombinant protein; residues 1-560; protein details: N-terminal SUMO-HIS10; label: Cy5 at 5' of template; letters put together from the description.

Data set [6] concerns the target T5, PrimPol R424A (Homo sapiens) (UniProt Q96LW4).
T5 sequence (looked up): T1 sequence (looked up) with R424A
To be noted: 1 mM Mn2+; primer 5'-triphosphate; primer nt 1 is ribo-A, rest DNA; EMSA: 40 mM HEPES pH 7.0, 50 mM KCl, 1 mM DTT, 5% glycerol, 0.1 mg/ml BSA, 1 mM MnCl2, 300 nM DNA, 24 C 20 min then ice (RPA assays: 50 nM DNA, 25 nM RPA, 8 C); recombinant protein; residues 1-560; protein details: N-terminal SUMO-HIS10; label: Cy5 at 5' of template; letters put together from the description.

[7] abbreviates: 1 mM Mn2+ with ATP, dGTP, dTTP (5'ppp primer made in situ), label: 5' Cy5, single-stranded DNA.
Where [8] appears, read: 1 mM Mn2+, primer 5'-triphosphate, primer nt 1 is ribo-A, rest DNA, label: Cy5 at 5' of template, letters put together from the description.

As to “AAAAAAAAAACCTGAAAAAAAAAA / AGGTTTTTTT [p-p-p-10/template]”, the binding result in data set [1] (1 mM Mn2+, 2 uM PrimPol, 8 C, primer 5'-triphosphate, primer nt 1 is ribo-A, rest DNA, letters put together from the description) was “binds more weakly”.
As for AAAAAAAAAACCTGAAAAAAAAAA [Cy5-Acctg24], the binding result in data set [1] (setting [7]) was “binds”; in data set [1] (1 mM Mn2+, 1-3 uM protein, label: 5' Cy5, single-stranded DNA) it was “no binding”; in data set [2] (setting [7]) it was “binds”.
Turning to “GACTACATTTCATCTGGCTTGGGCTTCATCGTTGTCGCAGACCTGGTGGATACCG / CGGTATCCACCAGGTCTG [Template-55/Primer-18]”, in data set [3], the binding result is “binds”.
Take “AAAAAAAAAAAAAAAAAAAAAAAAAAAAAAAAAAAAAAAAACCTGAAAAAAAAAA [Acctg55]”: the binding result is “no binding” in data set [4] and “binds” in the data set with RPA (Homo sapiens).
As to “AAAAAAAAAACCTGAAAAAAAAAA / AGGTTTTTTTTT [p-p-p-12/Cy5-Acctg24]”, the Kd in data set [5] and in data set [6] was above 10000 nM in each case.
As for “AAAAAAAAAACCTGAAAAAAAAAA / AGGTTTTT [p-p-p-8/Cy5-Acctg24]”, the results for the Kd in data set [1] (setting [8]) and in data set [2] (setting [8]) were 780 nM and 110 nM, respectively.
